Results from paper PMC10758103.
Results are given in words; binding and its absence hold for the method and conditions named. For some of these results: In cells and extracts the contact can be indirect. Some entries that bind do so weakly or less than the wild type.

Key:
[1] = biological target: p32 (endogenous) (human (endogenous in HEK-293T, ACHN and 786-O)) (UniProt Q07021); test: co-IP; ACHN cell lysate; rabbit anti-p32 polyclonal antibody on Dynabeads Protein A, normal rabbit IgG as control; IP buffer 40 mM Tris-Cl, 120 mM NaCl, 1% Triton X-100; 4°C overnight; immunoblot with anti-DLAT
[2] = biological target: p32 (endogenous) (human (endogenous in HEK-293T, ACHN and 786-O)) (UniProt Q07021); test: co-IP; 786-O cells treated with or without 200 nM elesclomol and CuSO4 for 24 h; western blot
[3] = biological target: FLAG-tagged C-terminal p32 (amino acids 175-282) (UniProt Q07021); test: co-IP; HEK-293T cells 48 h after transfection of FLAG-p32 domain plasmids; lysate on Anti-DYKDDDDK Magnetic Agarose, 4°C overnight; five washes with IP buffer; immunoblot for DLAT
[4] = biological target: FLAG-tagged p32 without the transit-peptide domain (amino acids 74-282) (UniProt Q07021); test: as above
[5] = biological target: FLAG-tagged p32 full length (amino acids 1-282) (UniProt Q07021); test: as above
[6] = biological target: lipoylated DLAT (lipo-DLAT), endogenous (human (endogenous in 786-O and ACHN)) (UniProt P10515); test: non-reducing gel electrophoresis with immunoblot; 786-O-pCDH and 786-O-p32 cells treated with concentration gradients of elesclomol and CuSO4; lysates not boiled or sonicated, no reducing reagent in the loading buffer
[7] = biological target: lipoylated DLAT (lipo-DLAT), endogenous (human (endogenous in 786-O and ACHN)) (UniProt P10515); test: non-reducing gel electrophoresis with immunoblot; ACHN cells, control and with stable expression of p32 (Figure S3B, C)

Measured: binding

B1: Dihydrolipoyllysine-residue acetyltransferase component of pyruvate dehydrogenase complex (DLAT), endogenous (protein, UniProt P10515 87-647)
chain: SLPPHQKVPLPSLSPTMQAGTIARWEKKEGDKINEGDLIAEVETDKATVGFESLEECYMAKILVAEGTRDVPIGAIICITVGKPEDIEAFKNYTLDSSAAPTPQAAPAPTPAATASPPTPSAQAPGSSYPPHMQVLLPALSPTMTMGTVQRWEKKVGEKLSEGDLLAEIETDKATIGFEVQEEGYLAKILVPEGTRDVPLGTPLCIIVEKEADISAFADYRPTEVTDLKPQVPPPTPPPVAAVPPTPQPLAPTPSAPCPATPAGPKGRVFVSPLAKKLAVEKGIDLTQVKGTGPDGRITKKDIDSFVPSKVAPAPAAVVPPTGPGMAPVPTGVFTDIPISNIRRVIAQRLMQSKQTIPHYYLSIDVNMGEVLLVRKELNKILEGRSKISVNDFIIKASALACLKVPEANSSWMDTVIRQNHVVDVSVAVSTPAGLITPIVFNAHIKGVETIANDVVSLATKAREGKLQPHEFQGGTFTISNLGMFGIKNFSAIINPPQACILAIGASEDKLVPADNEKGFDVASMMSVTLSCDHRVVDGAVGAQWLAEFRKYLEKPITMLL
binds: [1] | [2] | [3] | [4] | [5]

B2: lipoylated DLAT (lipo-DLAT), endogenous (protein, UniProt P10515 87-647)
chain: B1 chain
modifications: lipoylated (sites not given)
binds: [6] | [7]
